Results published in publication PMC4507767.
No constants are given. Whether binding was seen depends on the method and setting. In cells and extracts the contact can be indirect. Some results given as binding are weak or reduced against the parent protein; the word gives no strength. Tags and fused reporters may be left off the sequences shown.

Biological target: T1, OsHrd3-FLAG (rice) (UniProt Q10NT7)
T1 sequence: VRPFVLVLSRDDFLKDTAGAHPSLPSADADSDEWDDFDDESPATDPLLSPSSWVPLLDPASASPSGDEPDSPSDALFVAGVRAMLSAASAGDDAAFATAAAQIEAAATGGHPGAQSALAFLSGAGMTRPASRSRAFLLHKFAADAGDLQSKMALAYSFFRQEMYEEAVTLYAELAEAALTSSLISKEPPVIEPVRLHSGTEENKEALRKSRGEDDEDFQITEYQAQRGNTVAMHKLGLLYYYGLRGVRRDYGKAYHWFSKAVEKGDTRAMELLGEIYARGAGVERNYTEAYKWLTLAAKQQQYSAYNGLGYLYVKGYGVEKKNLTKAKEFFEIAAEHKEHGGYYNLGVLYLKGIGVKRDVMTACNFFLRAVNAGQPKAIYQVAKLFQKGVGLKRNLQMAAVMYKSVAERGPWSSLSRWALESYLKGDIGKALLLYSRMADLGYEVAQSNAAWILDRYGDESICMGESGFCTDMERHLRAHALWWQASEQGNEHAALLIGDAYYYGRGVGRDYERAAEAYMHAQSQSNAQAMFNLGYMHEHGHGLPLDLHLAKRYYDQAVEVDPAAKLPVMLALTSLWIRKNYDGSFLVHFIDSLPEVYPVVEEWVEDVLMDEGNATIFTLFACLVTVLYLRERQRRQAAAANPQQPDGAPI
Assay: co-IP; rice protoplasts transfected with OsHrd3-FLAG together with OsHrd1-HA or OsOS-9-HA; extraction buffer with 1% digitonin; immunoprecipitation with anti-FLAG M2 magnetic beads; immunoblot with anti-FLAG-HRP and anti-HA-HRP

B1: OsHrd1-HA (protein, UniProt Q5Z880 1-500)
chain: MIRLQTYAAFSLMATATAVYYAFSSREQFYPAMVYLSTSKICFVLLLNTGLVAMCVAWQLVKRLFLGTLREAEVERLNEQAWREVVEILFAVTIFRQDFSVSFLAMVAALLLVKALHWLAQKRVEYIETTPSVPMLSHARIVSFMLFLLVVDCLFLSNSLRSLIHKREASVAIFFSFEYMILATSTVSTFVKYIFYVSDMLMEGQWEKKAVYTFYLELISDLVHLSLYMLFFIAIFLNYGVPLHLIRELYETFRNFRIRIADYVRYRKITSNMNERFPDATADELNASDATCIICREEMTTAKKLLCGHLFHVHCLRSWLERQHTCPTCRAPILPPDNGRTAARPHGVHPGVQPVPGNGTPGSERAAGENISRRQAKLEAAASAASLYGRSFAYPPANNLNRYSTPPQSTSNGPQSGEASTSNQSPKGHATADPSAPTFYARGAVSSVTTTRELESSLQKAYENAIKSQIEMLQIQLQMFQHGATSSATNNENGEHTKSD
- binding: binds

B2: OsOS-9-HA (protein, UniProt Q67WM9 26-298)
chain: ADQIFTSSGAPFGRNSREPRYHVEFHPVDAPFNPENGQESVPMTSHVGKHYTCFLPVEETKTMKSIIPQNATNVIIESERRVKPKDPDELLEILKDQCFYRHEGWWSYEFCYYGKIRQVHVEGEKVIQEYVLGEYDADATDAYYENQTSDSADEDDNLIDTSKRYHVHLYTNGTVCDLTDMPRETEVRFVCSEPTVVISSIKEISSCKYVLTVQSPMLCKNPLFQQEKRTLSIHCNELLAEAEATVDDDSLPKEAQIIIPDPDGLHNYAAYAT
- binding: binds
